According to patent US20240102068A1, “C-GLYCOSYLTRANSFERASE VARIANTS AND USE THEREOF” (KOREA ADVANCED INSTITUTE OF SCIENCE AND TECHNOLOGY, priority 2021, published 2024):
Some results were stated once for a whole list of compounds, not compound by compound.

Tested on: aloesone
Experiment: Aloesin production from aloesone by GtCGT and variants in E. coli BL21(DE3), flask culture
Format: cell-based
Details: compared to conventional concentration of 0.3 μg/L (ALS strain with GtCGT^V93Q/Y193F)
Protocol: Also, in LC-MS/MS for aloesin analysis, MS (Agilent 6550 iFunnel Q-TOF LC/MS System) coupled with ultra HPLC (UHPLC; 1290 Infinity II LC System; Agilent) was used. Here, an Eclipse-plus C18 column was used, and 0.1% formic acid was used as buffer A, and acetonitrile to which 0.1% formic acid was added was used as buffer B.
Thereafter, in order to test the production of aloesin, the pCDF-GtCGT or pCDF-GtCGT^V93Q/Y193F plasmid was transformed into the BL21(DE3) strain containing pWAS-anti-pabA, pRSF-RpALS, and pBBR1-zwf plasmids, followed by flask culture.
Similarly to the test for increased production of aloesone, RpALS was additionally introduced to increase aloesin production. To this end, pCDF-RpALS-GtCGT^V93Q/Y193F was constructed instead of introducing pCDF-GtCGT^V93Q/Y193F. Specifically, RpALS was amplified from pCDF-RpALS using pCDFDuet F and pCDFDuet R primers, and inserted into the NcoI and BamHI sites of the pCA plasmid through Gibson assembly. Thereafter, four plasmids, namely pRSF-RpALS, pCDF-RpALS-GtCGT^V93Q/Y193F, pWAS-anti-pabA, and pBBR1-zwf, were transformed into E. coli BL21(DE3), which was named an ALS strain.
(§1) Mutagenesis for a specific sequence was performed in the same manner as in Example 2. Here, plasmids containing gene mutants were constructed using pCDF-RpALS-GtCGT^V93Q/Y193F as a template and using primer pairs shown in Table 11 below. The plasmids thus constructed were transformed into the BL21 (DE3) strain along with three plasmids, namely pWAS-anti-pabA, pRSF-RpALS, and pBBR1-zwf, followed by flask culture under the same conditions as in Example 3 using the strains thus constructed. The concentration of aloesin produced was measured in an MRM mode of the HPLC Triple Quadrupole Mass Spectrometer (LCMS-8050, Shimadzu) of the KAIST Biocore Center.
as §1, with “13” for “11”

Molecule | aloesin production increase | further results
GtCGT V93Q/Y193F/I323S: GtCGT^V93Q/Y193F with additional I323S (Table 10 No. 12) (protein, listed as Gentiana triflora) MGSLTNNDNLHIFLVCFIGQGVVNPMLRLGKAFASKGLLVTLSAPEIVGTEIRKANNLNDDQPIKVGSGMIRFEFFDDGWESVNGSKPFDVWQYINHLDQTGRQKLPIMLKKHEETGTPVSCLILNPLVPWVADVADSLQIPCATLWVQSCASFSAYYHYHHGLVPFPTESEPEIDVQLPGMPLLKYDEVPDFLHPRTPYPFFGTNILGQFKNLSKNFCILMDTFYELEHEIIDNMCKLCPIKPIGPLFKIPKDPSSNGITGNFMKVDDCKEWLDSRPTSTVVYVSVGSVVYLKQEQVTEMAYGILNSEVSFLWVLRPPSKRSGTEPHVLPEEFWEKAGDRGKVVQWSPQEQVLAHPATVGFLTHCGWNSTQEAISSGVPVITFPQFGDQVTNAKFLVEEFKVGVRLGRGELENRIITRDEVERALREITSGPKAEEVKENALKWKKKAEETVAKGGYSERNLVGFIEEVARKTGTK | – | aloesin production increase (listed as I323S): ≥ 10 fold
T50R: GtCGT^V93Q/Y193F with additional T50R (Table 10 No. 6) (protein, listed as Gentiana triflora) MGSLTNNDNLHIFLVCFIGQGVVNPMLRLGKAFASKGLLVTLSAPEIVGREIRKANNLNDDQPIKVGSGMIRFEFFDDGWESVNGSKPFDVWQYINHLDQTGRQKLPIMLKKHEETGTPVSCLILNPLVPWVADVADSLQIPCATLWVQSCASFSAYYHYHHGLVPFPTESEPEIDVQLPGMPLLKYDEVPDFLHPRTPYPFFGTNILGQFKNLSKNFCILMDTFYELEHEIIDNMCKLCPIKPIGPLFKIPKDPSSNGITGNFMKVDDCKEWLDSRPTSTVVYVSVGSVVYLKQEQVTEMAYGILNSEVSFLWVLRPPSKRIGTEPHVLPEEFWEKAGDRGKVVQWSPQEQVLAHPATVGFLTHCGWNSTQEAISSGVPVITFPQFGDQVTNAKFLVEEFKVGVRLGRGELENRIITRDEVERALREITSGPKAEEVKENALKWKKKAEETVAKGGYSERNLVGFIEEVARKTGTK | ≥ 10 fold | –
T50V: GtCGT^V93Q/Y193F with additional T50V (Table 10 No. 7) (protein, listed as Gentiana triflora) MGSLTNNDNLHIFLVCFIGQGVVNPMLRLGKAFASKGLLVTLSAPEIVGVEIRKANNLNDDQPIKVGSGMIRFEFFDDGWESVNGSKPFDVWQYINHLDQTGRQKLPIMLKKHEETGTPVSCLILNPLVPWVADVADSLQIPCATLWVQSCASFSAYYHYHHGLVPFPTESEPEIDVQLPGMPLLKYDEVPDFLHPRTPYPFFGTNILGQFKNLSKNFCILMDTFYELEHEIIDNMCKLCPIKPIGPLFKIPKDPSSNGITGNFMKVDDCKEWLDSRPTSTVVYVSVGSVVYLKQEQVTEMAYGILNSEVSFLWVLRPPSKRIGTEPHVLPEEFWEKAGDRGKVVQWSPQEQVLAHPATVGFLTHCGWNSTQEAISSGVPVITFPQFGDQVTNAKFLVEEFKVGVRLGRGELENRIITRDEVERALREITSGPKAEEVKENALKWKKKAEETVAKGGYSERNLVGFIEEVARKTGTK | ≥ 10 fold | –
118P: GtCGT^V93Q/Y193F with additional I18P (Table 10 No. 1) (protein, listed as Gentiana triflora) MGSLTNNDNLHIFLVCFPGQGVVNPMLRLGKAFASKGLLVTLSAPEIVGTEIRKANNLNDDQPIKVGSGMIRFEFFDDGWESVNGSKPFDVWQYINHLDQTGRQKLPIMLKKHEETGTPVSCLILNPLVPWVADVADSLQIPCATLWVQSCASFSAYYHYHHGLVPFPTESEPEIDVQLPGMPLLKYDEVPDFLHPRTPYPFFGTNILGQFKNLSKNFCILMDTFYELEHEIIDNMCKLCPIKPIGPLFKIPKDPSSNGITGNFMKVDDCKEWLDSRPTSTVVYVSVGSVVYLKQEQVTEMAYGILNSEVSFLWVLRPPSKRIGTEPHVLPEEFWEKAGDRGKVVQWSPQEQVLAHPATVGFLTHCGWNSTQEAISSGVPVITFPQFGDQVTNAKFLVEEFKVGVRLGRGELENRIITRDEVERALREITSGPKAEEVKENALKWKKKAEETVAKGGYSERNLVGFIEEVARKTGTK | ≥ 10 fold | –
I95T: GtCGT^V93Q/Y193F with additional I95T (Table 10 No. 9) (protein, listed as Gentiana triflora) MGSLTNNDNLHIFLVCFIGQGVVNPMLRLGKAFASKGLLVTLSAPEIVGTEIRKANNLNDDQPIKVGSGMIRFEFFDDGWESVNGSKPFDVWQYTNHLDQTGRQKLPIMLKKHEETGTPVSCLILNPLVPWVADVADSLQIPCATLWVQSCASFSAYYHYHHGLVPFPTESEPEIDVQLPGMPLLKYDEVPDFLHPRTPYPFFGTNILGQFKNLSKNFCILMDTFYELEHEIIDNMCKLCPIKPIGPLFKIPKDPSSNGITGNFMKVDDCKEWLDSRPTSTVVYVSVGSVVYLKQEQVTEMAYGILNSEVSFLWVLRPPSKRIGTEPHVLPEEFWEKAGDRGKVVQWSPQEQVLAHPATVGFLTHCGWNSTQEAISSGVPVITFPQFGDQVTNAKFLVEEFKVGVRLGRGELENRIITRDEVERALREITSGPKAEEVKENALKWKKKAEETVAKGGYSERNLVGFIEEVARKTGTK | ≥ 10 fold | –
Q20M: GtCGT^V93Q/Y193F with additional Q20M (Table 10 No. 2) (protein, listed as Gentiana triflora) MGSLTNNDNLHIFLVCFIGMGVVNPMLRLGKAFASKGLLVTLSAPEIVGTEIRKANNLNDDQPIKVGSGMIRFEFFDDGWESVNGSKPFDVWQYINHLDQTGRQKLPIMLKKHEETGTPVSCLILNPLVPWVADVADSLQIPCATLWVQSCASFSAYYHYHHGLVPFPTESEPEIDVQLPGMPLLKYDEVPDFLHPRTPYPFFGTNILGQFKNLSKNFCILMDTFYELEHEIIDNMCKLCPIKPIGPLFKIPKDPSSNGITGNFMKVDDCKEWLDSRPTSTVVYVSVGSVVYLKQEQVTEMAYGILNSEVSFLWVLRPPSKRIGTEPHVLPEEFWEKAGDRGKVVQWSPQEQVLAHPATVGFLTHCGWNSTQEAISSGVPVITFPQFGDQVTNAKFLVEEFKVGVRLGRGELENRIITRDEVERALREITSGPKAEEVKENALKWKKKAEETVAKGGYSERNLVGFIEEVARKTGTK | ≥ 10 fold | –
I323A: GtCGT^V93Q/Y193F with additional I323A (Table 10 No. 13) (protein, listed as Gentiana triflora) MGSLTNNDNLHIFLVCFIGQGVVNPMLRLGKAFASKGLLVTLSAPEIVGTEIRKANNLNDDQPIKVGSGMIRFEFFDDGWESVNGSKPFDVWQYINHLDQTGRQKLPIMLKKHEETGTPVSCLILNPLVPWVADVADSLQIPCATLWVQSCASFSAYYHYHHGLVPFPTESEPEIDVQLPGMPLLKYDEVPDFLHPRTPYPFFGTNILGQFKNLSKNFCILMDTFYELEHEIIDNMCKLCPIKPIGPLFKIPKDPSSNGITGNFMKVDDCKEWLDSRPTSTVVYVSVGSVVYLKQEQVTEMAYGILNSEVSFLWVLRPPSKRAGTEPHVLPEEFWEKAGDRGKVVQWSPQEQVLAHPATVGFLTHCGWNSTQEAISSGVPVITFPQFGDQVTNAKFLVEEFKVGVRLGRGELENRIITRDEVERALREITSGPKAEEVKENALKWKKKAEETVAKGGYSERNLVGFIEEVARKTGTK | ≥ 10 fold | –
GtCGT V93Q/Y193F/P385A: GtCGT^V93Q/Y193F with additional P385A (Table 12 No. 15) (protein, listed as Gentiana triflora) MGSLTNNDNLHIFLVCFIGQGVVNPMLRLGKAFASKGLLVTLSAPEIVGTEIRKANNLNDDQPIKVGSGMIRFEFFDDGWESVNGSKPFDVWQYINHLDQTGRQKLPIMLKKHEETGTPVSCLILNPLVPWVADVADSLQIPCATLWVQSCASFSAYYHYHHGLVPFPTESEPEIDVQLPGMPLLKYDEVPDFLHPRTPYPFFGTNILGQFKNLSKNFCILMDTFYELEHEIIDNMCKLCPIKPIGPLFKIPKDPSSNGITGNFMKVDDCKEWLDSRPTSTVVYVSVGSVVYLKQEQVTEMAYGILNSEVSFLWVLRPPSKRIGTEPHVLPEEFWEKAGDRGKVVQWSPQEQVLAHPATVGFLTHCGWNSTQEAISSGVPVITFAQFGDQVTNAKFLVEEFKVGVRLGRGELENRIITRDEVERALREITSGPKAEEVKENALKWKKKAEETVAKGGYSERNLVGFIEEVARKTGTK | – | aloesin production increase (listed as P385A): ≥ 5 fold
